Reference: PMC11844728
No constants are given. Whether binding was seen depends on the method and setting. Binding seen in cells or lysates may run through a third protein. Some entries that bind do so weakly or less than the wild type.

By UniProt entry, the sequences of proteins in these tests, tags left out.
UniProt Q13148: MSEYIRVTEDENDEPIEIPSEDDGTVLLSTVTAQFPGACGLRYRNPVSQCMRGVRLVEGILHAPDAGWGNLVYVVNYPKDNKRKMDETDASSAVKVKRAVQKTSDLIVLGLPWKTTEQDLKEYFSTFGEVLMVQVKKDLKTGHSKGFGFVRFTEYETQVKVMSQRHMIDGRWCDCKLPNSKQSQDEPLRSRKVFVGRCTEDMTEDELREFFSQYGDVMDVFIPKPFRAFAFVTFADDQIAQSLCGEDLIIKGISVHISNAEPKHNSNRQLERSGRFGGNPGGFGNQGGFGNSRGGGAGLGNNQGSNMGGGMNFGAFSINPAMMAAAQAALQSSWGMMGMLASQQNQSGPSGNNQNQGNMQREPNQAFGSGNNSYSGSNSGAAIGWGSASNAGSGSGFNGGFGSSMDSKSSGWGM

How the values were obtained:
[1] = molecular target: TDP-43 (transactive response DNA-binding protein 43), endogenous (human (endogenous in U2OS and human iPSC-derived motor neurons)) (UniProt Q13148); experiment: proximity ligation; Duolink In Situ Red Kit with PIAS4 and TDP-43 antibodies; untreated and arsenite-treated cells (fig. S5D)
[2] = molecular target: FLAG-tagged TDP-43 (transactive response DNA-binding protein 43) (human) (UniProt Q13148); experiment: co-IP; FLAG-TDP-43 immunoprecipitated on FLAG M2 magnetic beads under nondenaturing conditions from U2OS cells untreated or arsenite treated (500 uM, 1 hour); lysis buffer 50 mM tris-HCl pH 7.4, 150 mM NaCl, 1 mM EDTA, 1% Triton X-100, 20 mM NEM, RNase; 1 hour at 4°C; immunoblot for PIAS4

B1: PIAS4 (protein inhibitor of activated STAT 4) (protein, UniProt Q8N2W9 1-510)
chain: MAAELVEAKNMVMSFRVSDLQMLLGFVGRSKSGLKHELVTRALQLVQFDCSPELFKKIKELYETRYAKKNSEPAPQPHRPLDPLTMHSTYDRAGAVPRTPLAGPNIDYPVLYGKYLNGLGRLPAKTLKPEVRLVKLPFFNMLDELLKPTELVPQNNEKLQESPCIFALTPRQVELIRNSRELQPGVKAVQVVLRICYSDTSCPQEDQYPPNIAVKVNHSYCSVPGYYPSNKPGVEPKRPCRPINLTHLMYLSSATNRITVTWGNYGKSYSVALYLVRQLTSSELLQRLKTIGVKHPELCKALVKEKLRLDPDSEIATTGVRVSLICPLVKMRLSVPCRAETCAHLQCFDAVFYLQMNEKKPTWMCPVCDKPAPYDQLIIDGLLSKILSECEDADEIEYLVDGSWCPIRAEKERSCSPQGAILVLGPSDANGLLPAPSVNGSGALGSTGGGGPVGSMENGKPGADVVDLTLDSSSSSEDEEEEEEEEEDEDEEGPRPKRRCPFQKGLVPAC
Question: What does the source list for B1?
Answer: binding [1]: binds; binding [2]: binds
